In PubChem BioAssay AID1487 (National Center for Advancing Translational Sciences (NCATS), 2009) one finds AC50 data, which are given here for 53 molecules.

This test can be described thus: qHTS Assay for Modulators of Lamin A Splicing. The note with it: HeLa LMNA splicing GFP/RFP minigene ratio, 48 h. A digest of the protocol:
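Read-out is the ratio of GFP to DsRed2 object intensity, acquired by 488 nm laser-scanning cytometry on HeLa lamin A-EGFP minigene reporter cells. Compound incubation 48 hrs at 37 °C in Opti-MEM with 2% FBS; DMSO 0.5% final.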
(Quantitative high-throughput screening tests each substance at several concentrations.)

Where [1] appears, read: measured here: GFP splicing reporter channel.
[2] abbreviates: measured here: RFP viability control channel.

SMILES strings stand for the structures. Where “and” joins values, the source holds several entries; their conditions need not be identical. Equal entries are not always repeated. The list shows a part of the results. Shown are side measurements of this screen, not its main read-out; they come without a call. The list favours compounds with an active or inconclusive main result. The note in brackets gives the kind of curve behind each potency; many fits are weak.

The AC50 is the concentration giving half of the maximal activity seen.

In the case of `COc1ccc(CNc2ncnc3ccc(-c4ccccc4C#N)cc23)c(OC)c1`, the AC50 is 17.8 µM [falling, partial curve] under setting [1] and 20 µM [falling, partial curve] under setting [2].
Consider `Cc1cccc(N2CCN(CC(=O)Nc3ccccc3[N+](=O)[O-])CC2)c1C`, for which the AC50 under setting [1] was 35.5 µM [falling, single point] and the AC50 under setting [2] was 35.5 µM [falling, single point].
As to `COc1ccc(CCNC(=O)COc2ccc(S(=O)(=O)N3CCCC3)cc2)cc1`, under setting [1], the AC50 was 1 µM [falling, full curve, poor fit].
As for `CC(C)(C)SCCNS(=O)(=O)c1ccc2ccccc2c1`, the AC50 under setting [1] is 35.5 µM [rising, single point] and the AC50 under setting [2] is 31.6 µM [rising, single point].
Take `CC(C)N1C/C(=C/c2cccnc2)C(=O)/C(=C/c2cccnc2)C1`: the AC50 is 35.5 µM [falling, single point] under setting [1] and 35.5 µM [falling, single point] under setting [2].
In the case of `COc1ccc(N2C(=O)CSCC2=O)cc1OC`, under setting [2], the AC50 was 0.562 µM [rising, full curve, poor fit].
As to `COc1ccc2c(c1)O[C@@H](c1cccc(C(F)(F)F)c1)[C@H](OC(=O)Nc1ccc(OC(F)F)cc1)C2=O`, the AC50 under setting [1] is 17.8 µM [rising, single point] and the AC50 under setting [2] was 35.5 µM [rising, single point].
`CCSc1nc2ccccc2n1CCOc1ccccc1`: the AC50 runs as follows: under setting [1], 35.5 µM [rising, single point]; under setting [2], 35.5 µM [rising, single point].
`O=c1c2cc(Cl)ccc2nc(-c2ccccc2)n1O`: the AC50 under setting [2] is 0.0112 µM [rising, full curve, poor fit].
Same read-out and setting: then `CCc1c(C)sc2c1CCN(C(=O)Nc1ccccc1C(=O)OC)C2c1ccc(OC)cc1` (configuration not stated), with 7.08 µM [rising, partial curve]; and `Cc1ccc(Cl)cc1N1CCN(C(=O)c2cc3ccc4cccnc4c3[nH]2)CC1`, with 10 µM [rising, partial curve].
Regarding `CC(C)c1ccc(C2=CC(c3cccc(Cl)c3)n3c(nc4ccccc43)N2)cc1` (configuration not stated), the AC50 under setting [1] is 3.98 µM [rising, full curve, poor fit].
With `O=C(NCCC1=CCCCC1)c1ccc(Cl)c(S(=O)(=O)N2CCOCC2)c1`, the AC50 under setting [2] was 22.4 µM [rising, single point].
The same measure, in the same setting: the figure for `O=C(NCc1ccc(Cl)cc1)C1=Cc2cc(Br)ccc2OC1` is 11.2 µM [rising, single point]; for `FC(F)(F)COc1nc(N2CCOCC2)nc(N(c2ccccc2)c2ccccc2)n1` it is 12.6 µM [rising, partial curve].
Take `CN(CC(=O)Nc1cccc(S(=O)(=O)NC2=NCCCCC2)c1)Cc1ccc(C(C)(C)C)cc1`: the AC50 under setting [1] is 6.31 µM [falling, partial curve].
The same measure, in the same setting: the figure for `CC1CCCCN1CCCNC(=O)CN1C(=O)CSc2ccc(S(=O)(=O)N3CCOCC3)cc21` (configuration not stated) is 20 µM [falling, partial curve, poor fit].
With `O=C(/C=C(\c1ccc(Cl)cc1)n1cncn1)c1ccc(Cl)cc1`, the AC50 under setting [1] is 35.5 µM [falling, single point] and the AC50 under setting [2] was 35.5 µM [falling, single point].
Consider `O=C1CCCN1CCCN=c1c([N+](=O)[O-])nn(-c2ccc(Cl)cc2)n1O`, for which the AC50 under setting [2] was 15.8 µM [falling, partial curve, poor fit].
As for `Cc1ccc(S(=O)(=O)Nc2ccc3nc(C)sc3c2)cc1`, the AC50 under setting [1] was 1.58 µM [rising, full curve] and the AC50 under setting [2] is 2.82 µM [rising, full curve].
Regarding `CN1C(=O)C2(Oc3ccccc3C3CC(c4ccccc4)=NN32)c2ccccc21` (configuration not stated), the AC50 is 7.94 µM [falling, partial curve, poor fit] under setting [1] and 5.62 µM [falling, full curve, poor fit] under setting [2].
For `O=C(NC(c1ccccc1)C(Cl)Cl)c1ccccc1` (configuration not stated), the AC50 under setting [2] is 31.6 µM [rising, single point].
The same measure, in the same setting: the figure for `COc1cc(OC)c(OC)cc1/C=C/C(=O)c1ccc(NS(=O)(=O)c2ccc(C)cc2)cc1` is 2.82 µM [rising, full curve, poor fit].
For the molecule `CCc1sc(C(=O)NCc2cc(C)n(C)n2)cc1Br`, the AC50 runs as follows: under setting [1], 17.8 µM [rising, single point]; under setting [2], 25.1 µM [rising, single point].
Take `Cc1ccc(SCC(=O)c2c(C)[nH]c3ccccc23)cc1`: under setting [2], the AC50 is 35.5 µM [rising, single point].
As to `CCc1ccc(NC(=O)Nc2ccccc2OCc2cc(=O)n3ccccc3n2)cc1`, the AC50 under setting [2] is 20 µM [falling, single point].
Consider `COc1cc(OC)c(-c2cc(C(=O)O)ccc2OC)c(OC)c1`, for which, under setting [2], the AC50 is 0.355 µM [rising, single point].
On the same count and under the same terms, the figure for `O=C(c1ccccc1)n1ccn(-c2ccccc2)c1=S` is 15.8 µM [rising, partial curve].
Consider `Cn1nc(C(C)(C)C)cc1C(=O)Nc1nc2c(s1)C(=O)CC(C)(C)C2`, for which the AC50 reads like this: under setting [1], 3.55 µM [falling, single point]; under setting [2], 3.55 µM [falling, single point].
For the molecule `Cc1ccc(-c2nnn(CC(=O)N(Cc3cccs3)C(C(=O)NC3CCCC3)c3ccncc3)n2)cc1` (configuration not stated), the AC50 reads like this: under setting [1], 11.2 µM [falling, partial curve]; under setting [2], 17.8 µM [rising, single point].
For the molecule `N=c1n(CCN2CCOCC2)c2ccccc2n1CC(=O)c1ccc(Cl)c(Cl)c1`, the AC50 was 20 µM [falling, single point] under setting [1] and 22.4 µM [falling, partial curve] under setting [2].
`Cc1cc(C)cc(NC(=O)CSc2cc(C(=O)c3nccn3C)c3ccccc3n2)c1`: the AC50 was 0.355 µM [rising, partial curve, poor fit] under setting [1] and 1.12 µM [rising, partial curve, poor fit] under setting [2].
Take `CC(C)COCC(CN(Cc1ccccc1)c1ccccc1)N1CCCC1` (configuration not stated): the AC50 under setting [1] is 22.4 µM [falling, single point] and 22.4 nM [falling, full curve, poor fit] and 891 nM [falling, partial curve]; the AC50 under setting [2] was 4.47 nM [falling, full curve, poor fit] and 1.12 µM [falling, partial curve, poor fit].
In the case of `CC1=C(Sc2nc3ccccc3[nH]2)C(=O)NC(C)(C)C1`, under setting [1], the AC50 is 5.62 µM [rising, single point].
`O=C(Nc1ccc(F)cc1)C(c1ccccc1)N1CCN(S(=O)(=O)c2c(F)cccc2F)CC1` (configuration not stated): under setting [2], the AC50 was 35.5 µM [rising, single point].
As for `CCOC(=O)c1cnc(N2CCN(c3cccc(C)c3C)CC2)c2ccccc12`, under setting [1], the AC50 is 10 µM [falling, partial curve, poor fit].
With `O=C(NNc1cc(Cl)ccc1Cl)c1cccnc1Cl`, the AC50 under setting [1] is 10 µM [rising, partial curve].
On to `Cc1ccc(NCC(=O)Nc2cccc(S(=O)(=O)N(C)C)c2)c(Cl)c1`, for which, under setting [2], the AC50 was 20 µM [rising, single point].
As for `COc1ccc(-c2nc3c(c4c2C[C@H](c2ccccc2)OC4)CN(S(=O)(=O)c2ccc(Cl)c4nonc24)CC3)c(C)c1`, the AC50 was 4.47 µM [falling, partial curve, poor fit] under setting [1] and 2 µM [falling, partial curve] under setting [2].
As to `CCOc1ccccc1N(C(=O)c1snc(C(N)=O)c1N)C(C(=O)NCCC(C)C)c1ccco1` (configuration not stated), under setting [2], the AC50 is 22.4 µM [rising, single point].
In the case of `CCCCOc1ccc(OC(=O)c2cccnc2)cc1`, the AC50 under setting [1] was 6.31 µM [falling, full curve].
As for `COc1ccc(C)cc1N(C(=O)c1cccc(F)c1)c1nc2ccccc2s1`, the AC50 under setting [2] was 14.1 µM [rising, partial curve, poor fit].
Take `COc1ccccc1NC1=C(N2CCCCC2)C(=O)c2ccccc2C1=O`: the AC50 under setting [1] is 5.62 µM [falling, full curve].
Take `Cc1ccc2nc(NNC(=O)c3ccc(S(=O)(=O)N4CCc5ccccc5C4)cc3)sc2c1`: the AC50 runs as follows: under setting [1], 0.316 µM [falling, full curve, poor fit]; under setting [2], 4.47 µM [rising, full curve, poor fit].
On to `COc1ccc([N+](=O)[O-])cc1/C=N/Nc1nc(N2CCCCC2)nc(N2CCCCC2)n1`, for which the AC50 under setting [1] is 0.891 µM [rising, single point].
For the molecule `O=S(=O)(Nc1nc2ccccc2nc1N1CCc2ccccc2C1)c1ccc(Cl)cc1`, the AC50 under setting [2] is 17.8 µM [rising, single point].
Take `O=C(COC(=O)c1cc(Br)ccc1O)Nc1cc(S(=O)(=O)N2CCCC2)ccc1Cl`: under setting [1], the AC50 is 0.0112 µM [rising, full curve, poor fit].
Take `COc1ccccc1NC(=O)N1CCc2[nH]c3ccc(F)cc3c2C1`: the AC50 under setting [1] was 12.6 µM [rising, single point].
As for `CC(=O)C1=C(c2ccc(F)cc2)N(C(C)=O)n2c(nnc2C2CCCCC2)S1`, the AC50 under setting [1] is 2 µM [falling, partial curve] and the AC50 under setting [2] is 2.51 µM [falling, partial curve].
Consider `Cn1c(=O)c2[nH]c(C3CCCC3)nc2n(C)c1=O`, for which the AC50 is, setting by setting: under setting [1], 3.98 µM [falling, single point]; under setting [2], 0.00501 µM [falling, full curve, poor fit].
Take `C#CCN1C(=O)S/C(=C/C=C/c2ccc(N(C)C)cc2)C1=O`: the AC50 under setting [1] was 10 µM [rising, partial curve].
For the molecule `CCOC(=O)NCc1ccc(S(=O)(=O)Nc2ccc(C)cc2)cc1`, under setting [2], the AC50 is 35.5 µM [rising, single point].
Same read-out and setting: the figure for `Cc1ccc(C)c(N2CCN(S(=O)(=O)c3ccc(-c4cnc(C5CC5)o4)cc3)CC2)c1` is 5.01 µM [rising, full curve].
